One substance from publication PMC7395098 can be followed below.

These are yes or no findings as the source states them, for the method shown. Binding calls can cover weak binding; strength is not graded here.

In this experiment the target is ZjFT (Ziziphus jujuba (Chinese jujube)). Briefly: two-hybrid; tested proteins fused to Gal4 BD (pGBKT7), screening proteins fused to Gal4 AD (pGADT7), cotransformed into yeast strain AH109; spotted on SD -LW, -LWH, -LWH + 7 mM 3-AT and -LWAH; growth monitored after 3 days at 28 °C.

Take ZjCO5 (from UniProt A0A6P4B574): the binding entry is recorded as “binds”.
